Measurements reported in PubChem BioAssay AID720505 (Drosophila RNAi Screening Center, 2013)

Purpose: 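Fly regulators or components of the CRAC channel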 (primary screen)
Cell system: Drosophila S2R+ cells
Reagents: long dsRNA against Drosophila genes
Conditions: thapsigargin (2 µM) in calcium-free buffer to empty internal stores, then 2 mM calcium added back
Detection: 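Stores emptied by 2 µM thapsigargin without calcium, then 2 mM calcium re-added; fluo-4 fluorescence followed by FLIPR in 384-well plates, per-well averaged endpoint, raw; two screen passes, some wells retested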
Reading the numbers: calcium signal and retest calcium signal: higher = more calcium entry after store depletion
Hit rule: 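Knock-downs counted as hits when calcium entry dropped relative to STIM1 positive and Rho1 negative controls present on each plate; roughly 1500 genes called, with reductions of differing size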
Meaning of the calls: active = called as lowering calcium entry; inactive = not called
The screen tested about 20,000 reagents; this is an unselected part of those that have a named target and a result. Over the whole deposit, about 2,100 (10%) got an active call. 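Raw plate signals without normalisation; calls rest on control-based scores that were not deposited; replicate 2 separates called from uncalled poorly.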 The numbers tell different reagents against one gene apart. A plus sign joins genes that one reagent is predicted to hit. Not given: the amount of reagent, the time to read-out.

With knock-down of shps, the screen gave calcium signal, replicate 1 = 263; calcium signal, replicate 2 = 170; inactive.
After knock-down of cnn #1, the screen gave calcium signal, replicate 1 = 74.3; calcium signal, replicate 2 = 132; inactive.
For cnn #2 the deposit lists calcium signal, replicate 1 = 170; calcium signal, replicate 2 = 163; inactive.
Knock-down of ca #1 gave: calcium signal, replicate 1 = 124; calcium signal, replicate 2 = 134; inactive.
Knock-down of ca #2 came out at: calcium signal, replicate 1 = 115; calcium signal, replicate 2 = 197; inactive.
For ca #3 the deposit lists calcium signal, replicate 1 = 149; calcium signal, replicate 2 = 193; inactive.
With knock-down of eIF3f1, the record shows calcium signal, replicate 1 = 84.5; calcium signal, replicate 2 = 118; inactive.
With knock-down of CG11825, the record shows calcium signal, replicate 1 = 101; calcium signal, replicate 2 = 86.5; inactive.
HemK1 gave calcium signal, replicate 1 = 146; calcium signal, replicate 2 = 203; inactive.
FucT6 showed calcium signal, replicate 1 = 106; calcium signal, replicate 2 = 122; inactive.
With knock-down of CG10332 (retired record) + IM18 the results were calcium signal, replicate 1 = 136; calcium signal, replicate 2 = 151; inactive.
For CG1288, the entry reads calcium signal, replicate 1 = 114; calcium signal, replicate 2 = 169; inactive.
Knock-down of CG6012 resulted in: calcium signal, replicate 1 = 76.5; calcium signal, replicate 2 = 138; inactive.
Sf3b1 gave calcium signal, replicate 1 = 32.2; calcium signal, replicate 2 = 40.3; active.
After knock-down of Sfxn1-3 the results were calcium signal, replicate 1 = 106; calcium signal, replicate 2 = 161; inactive.
S-Lap2 scored calcium signal, replicate 1 = 100; calcium signal, replicate 2 = 82.9; inactive.
LeuRS-m showed calcium signal, replicate 1 = 80.7; calcium signal, replicate 2 = 89.7; inactive.
Knock-down of CG12316 came out at: calcium signal, replicate 1 = 137; calcium signal, replicate 2 = 135; inactive.
beg scored calcium signal, replicate 1 = 89; calcium signal, replicate 2 = 142; inactive.
jef gave calcium signal, replicate 1 = 109; calcium signal, replicate 2 = 177; inactive.
Silencing of Pka-C3 #1 came out at: active.
Against Pka-C3 #2, the values are calcium signal, replicate 1 = 123; calcium signal, replicate 2 = 148; inactive.
After knock-down of CG31467, the record shows calcium signal, replicate 1 = 123; calcium signal, replicate 2 = 101; inactive.
Against Fatp (retired record), the entry reads calcium signal, replicate 1 = 73.7; calcium signal, replicate 2 = 96.3; inactive.
After knock-down of CG4461, the record shows calcium signal, replicate 1 = 67.8; calcium signal, replicate 2 = 96.1; inactive.
With knock-down of CG10616, the record shows calcium signal, replicate 1 = 102; calcium signal, replicate 2 = 83.9; inactive.
vib scored calcium signal, replicate 1 = 195; calcium signal, replicate 2 = 192; inactive.
After knock-down of Polr2L, the screen gave calcium signal, replicate 1 = 235; calcium signal, replicate 2 = 171; inactive.
Against Lipt2 #1 the deposit lists calcium signal, replicate 1 = 100; calcium signal, replicate 2 = 90.7; retest calcium signal, replicate 1 = 117; retest calcium signal, replicate 2 = 98.5; inactive.
Lipt2 #2 gave calcium signal, replicate 1 = 108; calcium signal, replicate 2 = 206; inactive.
Knock-down of CG33108 gave: calcium signal, replicate 1 = 150; calcium signal, replicate 2 = 103; inactive.
Silencing of CG5478 came out at: calcium signal, replicate 1 = 144; calcium signal, replicate 2 = 163; inactive.
With knock-down of Alg9 the results were calcium signal, replicate 1 = 238; calcium signal, replicate 2 = 254; inactive.
Silencing of Tango8 came out at: calcium signal, replicate 1 = 168; calcium signal, replicate 2 = 182; retest calcium signal, replicate 1 = 109; retest calcium signal, replicate 2 = 103; inactive.
Silencing of mRpS14 resulted in: calcium signal, replicate 1 = 69.8; calcium signal, replicate 2 = 177; active.

Reformatted: 4 of the entries above.
predicted target,reagent,"calcium signal, replicate 1","calcium signal, replicate 2","retest calcium signal, replicate 1","retest calcium signal, replicate 2",activity call
FucT6,1,106,122,,,inactive
CG10332 (retired record) + IM18,1,136,151,,,inactive
CG1288,1,114,169,,,inactive
CG6012,1,76.5,138,,,inactive
